Measured values reported in publication PMC5520704.
No constants are given. Whether binding was seen depends on the method and setting. Binding seen in cells or lysates may run through a third protein. Some binding calls cover weakened binding; strength is not graded here.

The chains behind the UniProt entries cited, without tags or fusion partners.
UniProt P06748: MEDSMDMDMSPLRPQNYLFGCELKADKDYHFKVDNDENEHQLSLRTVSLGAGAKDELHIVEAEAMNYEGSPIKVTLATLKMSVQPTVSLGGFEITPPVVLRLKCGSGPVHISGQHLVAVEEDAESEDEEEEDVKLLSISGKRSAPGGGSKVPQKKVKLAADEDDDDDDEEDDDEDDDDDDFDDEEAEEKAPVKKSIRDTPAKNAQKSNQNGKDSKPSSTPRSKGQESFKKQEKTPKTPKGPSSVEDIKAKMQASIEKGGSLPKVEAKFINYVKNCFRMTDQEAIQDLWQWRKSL
UniProt P03372: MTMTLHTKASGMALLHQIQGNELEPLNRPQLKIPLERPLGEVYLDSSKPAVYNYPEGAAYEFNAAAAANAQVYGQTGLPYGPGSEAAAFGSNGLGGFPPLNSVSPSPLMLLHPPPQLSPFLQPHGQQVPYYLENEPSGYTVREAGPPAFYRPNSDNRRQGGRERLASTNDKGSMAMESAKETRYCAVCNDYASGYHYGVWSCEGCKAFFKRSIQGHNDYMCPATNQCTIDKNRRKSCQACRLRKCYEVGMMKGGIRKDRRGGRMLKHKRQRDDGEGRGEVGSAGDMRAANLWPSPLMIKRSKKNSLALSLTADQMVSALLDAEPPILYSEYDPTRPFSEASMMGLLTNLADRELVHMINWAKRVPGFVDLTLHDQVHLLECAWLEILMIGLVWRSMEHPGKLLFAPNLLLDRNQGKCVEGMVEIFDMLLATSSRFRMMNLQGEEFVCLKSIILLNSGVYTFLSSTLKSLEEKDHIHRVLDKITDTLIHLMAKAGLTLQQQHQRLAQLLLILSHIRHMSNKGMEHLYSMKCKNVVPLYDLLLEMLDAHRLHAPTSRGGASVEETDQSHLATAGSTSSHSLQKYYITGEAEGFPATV

Columns and labels:
[1] = target: T1, BASP1 (human (endogenous in MCF7 and T47D)) (UniProt P80723); experiment: co-IP; immunoprecipitation of endogenous BASP1 or ERα (control IgG) from MCF7 nuclear extracts with Dynabeads; immunoblotting; cells also treated 30 min with 10 nM estradiol, 100 nM tamoxifen or vehicle
T1 sequence: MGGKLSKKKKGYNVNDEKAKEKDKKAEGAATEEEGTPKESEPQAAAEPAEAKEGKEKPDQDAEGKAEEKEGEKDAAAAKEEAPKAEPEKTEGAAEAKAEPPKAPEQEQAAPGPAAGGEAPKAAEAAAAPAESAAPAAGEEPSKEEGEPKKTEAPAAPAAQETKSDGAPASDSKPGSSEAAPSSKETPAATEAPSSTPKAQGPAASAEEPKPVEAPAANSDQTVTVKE

[2] = target: T1, BASP1 (human (endogenous in MCF7 and T47D)); experiment: co-IP; BASP1 immunoprecipitates from T47D cells, with and without tamoxifen treatment; probed for ERα

| binding [1] | binding [2] | Substance |
| --- | --- | --- |
| binds |  | nucleophosmin (from UniProt P06748 1-294) |
| binds | binds | oestrogen receptor α (from UniProt P03372 1-595) |
